# Measurements reported in ChEMBL document CHEMBL4303122, “Identification of potential treatments for COVID-19 through artificial intelligence-enabled phenomic analysis of human cells infected with SARS-CoV-2” (2020).
# Whole data set: some 1,600 compounds, median “Hit score” near 0.13, cut for the highest 2% near 0.46. This is one part of the list.
# Test system: SARS-CoV-2
# Assay: Antiviral activity against SARS-CoV-2 (USA-WA1/2020 strain) measured by imaging in HRCE cells at MOI 0.4 after 96 hrs (reported as hit score from 0-1 for on-disease vs off-disease activity: scores >0.6 considered hits)
# Type: functional, Homo sapiens
row,Structure (SMILES),Hit score
1,CCCc1nc2c(C)cc(-c3nc4ccccc4n3C)cc2n1Cc1ccc(-c2ccccc2C(=O)O)cc1,0.1182
2,CC(C)N(CCc1c[nH]c2ccccc12)C(C)C,0.03523
3,CCOC(=O)N1CSC[C@H]1C(=O)O [TELMESTEINE],0.3645
4,CC[N+](CC)(CCNC(=O)C(=O)NCC[N+](CC)(CC)Cc1ccccc1Cl)Cc1ccccc1Cl [AMBENONIUM],0.1681
5,CC(=O)O.CCCC[C@H](NC(C)=O)C(=O)N[C@H]1CC(=O)NCCCC[C@@H](C(=O)O)NC(=O)[C@H](Cc2c[nH]c3ccccc23)NC(=O)[C@H](CCCNC(=N)N)NC(=O)[C@@H](Cc2ccccc2)NC(=O)[C@H](Cc2c[nH]cn2)NC1=O [BREMELANOTIDE ACETATE],0.08694
6,Cc1ccc(C(=O)C(C)CN2CCCCC2)cc1 (centres undefined) [TOLPERISONE],0.08796
7,Cc1ncsc1CCCl [CLOMETHIAZOLE],0.1545
8,CNCC[C@@H](Oc1ccccc1C)c1ccccc1 [ATOMOXETINE],0.09173
9,CC(C)(O)CNc1nc(Nc2ccnc(C(F)(F)F)c2)nc(-c2cccc(C(F)(F)F)n2)n1 [ENASIDENIB],0.1439
10,COCCCOc1ccnc(C[S+]([O-])c2nc3ccccc3[nH]2)c1C (centres undefined) [RABEPRAZOLE],0.0917
11,Cc1cc(Nc2ncc(Cl)c(Nc3ccccc3S(=O)(=O)C(C)C)n2)c(OC(C)C)cc1C1CCNCC1 [CERITINIB],0.03368
12,CC(Cc1ccc(O)c(O)c1)C(C)Cc1ccc(O)c(O)c1 (centres undefined) [NORDIHYDROGUAIARETIC ACID],0.1128
13,C[C@@H](C(=O)O)c1ccc(-c2ccccc2)c(F)c1 [TARENFLURBIL],0.1438
14,C=C[C@@H]1C[C@]1(NC(=O)[C@@H]1C[C@@H]2CN1C(=O)[C@H](C(C)(C)C)NC(=O)O[C@@H]1C[C@H]1CCCCCc1nc3ccc(OC)cc3nc1O2)C(=O)NS(=O)(=O)C1CC1 [GRAZOPREVIR ANHYDROUS],0.01454
15,c1cnc(N2CCN(Cc3ccc4c(c3)OCO4)CC2)nc1 [PIRIBEDIL],0.08373
16,COc1cc2c(cc1OC)CC(=O)N(CCCN(C)C[C@H]1Cc3cc(OC)c(OC)cc31)CC2 [IVABRADINE],0.05115
17,CS(=O)(=O)c1ccc(-c2cn3ccccc3n2)cc1 [ZOLIMIDINE],0.1274
18,CCCCCCCCCCCCOCCOCCOCCOCCOCCOCCOCCOCCOCCO,0.154
19,C=C1c2c(Cl)ccc(O)c2C(=O)C2=C(O)[C@]3(O)C(=O)C(C(N)=O)=C(O)[C@@H](N(C)C)[C@@H]3[C@@H](O)[C@H]12.O=C(O)c1cc(S(=O)(=O)O)ccc1O [MECLOCYCLINE SULFOSALICYLATE],0.1338

# Part of the list above, as tab-separated lines.
row	Structure (SMILES)	Hit score
8	CNCC[C@@H](Oc1ccccc1C)c1ccccc1 [ATOMOXETINE]	0.09173
11	Cc1cc(Nc2ncc(Cl)c(Nc3ccccc3S(=O)(=O)C(C)C)n2)c(OC(C)C)cc1C1CCNCC1 [CERITINIB]	0.03368
13	C[C@@H](C(=O)O)c1ccc(-c2ccccc2)c(F)c1 [TARENFLURBIL]	0.1438
17	CS(=O)(=O)c1ccc(-c2cn3ccccc3n2)cc1 [ZOLIMIDINE]	0.1274
18	CCCCCCCCCCCCOCCOCCOCCOCCOCCOCCOCCOCCOCCO	0.154
